Assay results published in paper PMC10164911.
These are yes or no findings as the source states them, for the method shown. Binding seen in cells or lysates may run through a third protein. Some binding calls cover weakened binding; strength is not graded here. Sequences can lack the tags named with a protein.

Protein sequences, listed by entry. Tags and fused reporters are not part of them.
UniProt Q99250: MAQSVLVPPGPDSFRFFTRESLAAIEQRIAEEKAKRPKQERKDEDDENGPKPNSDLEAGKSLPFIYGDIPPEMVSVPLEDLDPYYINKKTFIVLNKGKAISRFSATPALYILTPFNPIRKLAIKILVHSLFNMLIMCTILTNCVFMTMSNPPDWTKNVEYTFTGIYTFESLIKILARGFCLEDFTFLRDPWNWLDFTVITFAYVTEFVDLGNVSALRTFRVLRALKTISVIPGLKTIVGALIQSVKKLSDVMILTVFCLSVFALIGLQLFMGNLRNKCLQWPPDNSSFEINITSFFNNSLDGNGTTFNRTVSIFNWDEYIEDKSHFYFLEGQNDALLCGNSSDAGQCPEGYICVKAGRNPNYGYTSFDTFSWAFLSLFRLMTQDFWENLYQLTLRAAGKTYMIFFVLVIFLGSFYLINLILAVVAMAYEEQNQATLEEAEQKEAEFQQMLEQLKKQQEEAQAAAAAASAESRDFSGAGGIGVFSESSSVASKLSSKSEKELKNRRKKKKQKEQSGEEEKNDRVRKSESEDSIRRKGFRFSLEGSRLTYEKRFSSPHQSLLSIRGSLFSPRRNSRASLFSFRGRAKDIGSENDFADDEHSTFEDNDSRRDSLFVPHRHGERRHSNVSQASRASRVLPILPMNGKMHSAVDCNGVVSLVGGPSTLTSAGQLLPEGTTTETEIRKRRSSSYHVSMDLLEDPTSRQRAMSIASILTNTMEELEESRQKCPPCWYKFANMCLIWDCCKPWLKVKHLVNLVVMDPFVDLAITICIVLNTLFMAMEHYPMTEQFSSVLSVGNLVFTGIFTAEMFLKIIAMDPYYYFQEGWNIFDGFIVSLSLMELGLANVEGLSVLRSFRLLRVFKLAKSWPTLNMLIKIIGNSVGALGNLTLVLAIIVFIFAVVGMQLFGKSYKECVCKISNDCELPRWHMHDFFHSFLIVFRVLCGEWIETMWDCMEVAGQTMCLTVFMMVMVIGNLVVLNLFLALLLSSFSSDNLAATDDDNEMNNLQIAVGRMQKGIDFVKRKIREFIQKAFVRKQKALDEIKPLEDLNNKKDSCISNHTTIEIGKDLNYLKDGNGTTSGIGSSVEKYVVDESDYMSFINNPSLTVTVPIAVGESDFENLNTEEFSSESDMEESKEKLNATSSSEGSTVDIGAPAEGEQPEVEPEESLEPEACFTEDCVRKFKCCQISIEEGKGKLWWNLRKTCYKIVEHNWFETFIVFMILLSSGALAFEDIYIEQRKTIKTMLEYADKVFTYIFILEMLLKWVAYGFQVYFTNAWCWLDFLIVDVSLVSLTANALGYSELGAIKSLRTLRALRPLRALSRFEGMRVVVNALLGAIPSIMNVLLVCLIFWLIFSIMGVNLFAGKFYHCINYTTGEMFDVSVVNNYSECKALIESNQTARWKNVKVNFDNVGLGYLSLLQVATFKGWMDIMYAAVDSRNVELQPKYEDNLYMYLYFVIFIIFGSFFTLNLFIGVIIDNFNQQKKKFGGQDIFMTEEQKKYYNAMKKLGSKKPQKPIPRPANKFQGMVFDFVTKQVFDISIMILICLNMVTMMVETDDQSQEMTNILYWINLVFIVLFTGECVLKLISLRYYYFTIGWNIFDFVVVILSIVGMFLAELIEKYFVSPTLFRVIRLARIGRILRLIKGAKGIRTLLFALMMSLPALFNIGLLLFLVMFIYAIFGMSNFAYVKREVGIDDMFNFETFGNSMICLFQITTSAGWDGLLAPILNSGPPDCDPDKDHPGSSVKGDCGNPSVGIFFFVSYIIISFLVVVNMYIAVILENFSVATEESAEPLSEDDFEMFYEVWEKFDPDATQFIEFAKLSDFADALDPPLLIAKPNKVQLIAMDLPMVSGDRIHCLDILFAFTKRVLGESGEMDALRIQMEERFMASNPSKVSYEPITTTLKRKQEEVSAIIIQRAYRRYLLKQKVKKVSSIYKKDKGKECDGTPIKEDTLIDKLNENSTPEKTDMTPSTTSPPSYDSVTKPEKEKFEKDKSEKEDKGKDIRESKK

Biological target: T1, PRRT2-HA (full-length proline-rich transmembrane protein 2 with 3XHA tag) (human) (UniProt Q7Z6L0)
T1 sequence: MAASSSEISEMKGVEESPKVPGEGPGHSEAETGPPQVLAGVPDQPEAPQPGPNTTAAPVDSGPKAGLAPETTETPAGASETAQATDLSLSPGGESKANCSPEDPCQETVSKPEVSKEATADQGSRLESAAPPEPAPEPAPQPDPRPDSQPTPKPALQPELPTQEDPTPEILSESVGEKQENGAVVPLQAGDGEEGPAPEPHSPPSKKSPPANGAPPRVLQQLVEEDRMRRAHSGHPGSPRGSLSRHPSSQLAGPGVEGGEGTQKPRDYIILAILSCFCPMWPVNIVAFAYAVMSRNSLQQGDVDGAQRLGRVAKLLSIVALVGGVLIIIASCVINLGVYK
Assay: pull-down; HA-tagged PRRT2 variants from naive Hek293 lysate held on anti-HA-agarose beads, washed, then incubated with extracts of Hek293 clones expressing Nav1.2 or Nav1.1 for 2 h at 4 °C; lysis buffer 150 mM NaCl, 50 mM Tris, 1 mM EDTA, 1% Triton X-100; Western blot with pan-Nav and HA …; only the target purified

In the case of “Nav1.2 α-subunit (voltage-dependent Na+ channel) (from UniProt Q99250 1-2005)”, the binding is reported as “binds”.
